Experimental data as given in paper PMC9686995.
These are yes or no findings as the source states them, for the method shown. In cells and extracts the contact can be indirect. Some results given as binding are weak or reduced against the parent protein; the word gives no strength. Where a sequence is shown, tags or fusion partners need not be part of it.

Sequences of proteins named here, by UniProt entry; tags and fusion partners are left off.
UniProt G5EF15: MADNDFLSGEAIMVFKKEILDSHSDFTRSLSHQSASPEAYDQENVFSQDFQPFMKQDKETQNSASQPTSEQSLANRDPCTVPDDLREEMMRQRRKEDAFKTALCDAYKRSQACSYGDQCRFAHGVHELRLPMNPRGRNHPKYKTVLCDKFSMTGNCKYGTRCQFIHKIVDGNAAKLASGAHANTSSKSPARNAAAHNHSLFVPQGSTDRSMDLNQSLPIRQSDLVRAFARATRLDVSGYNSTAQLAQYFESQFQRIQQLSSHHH

Biological target: T1, MEG-1::GFP (C. elegans) (UniProt Q21126)
T1 sequence: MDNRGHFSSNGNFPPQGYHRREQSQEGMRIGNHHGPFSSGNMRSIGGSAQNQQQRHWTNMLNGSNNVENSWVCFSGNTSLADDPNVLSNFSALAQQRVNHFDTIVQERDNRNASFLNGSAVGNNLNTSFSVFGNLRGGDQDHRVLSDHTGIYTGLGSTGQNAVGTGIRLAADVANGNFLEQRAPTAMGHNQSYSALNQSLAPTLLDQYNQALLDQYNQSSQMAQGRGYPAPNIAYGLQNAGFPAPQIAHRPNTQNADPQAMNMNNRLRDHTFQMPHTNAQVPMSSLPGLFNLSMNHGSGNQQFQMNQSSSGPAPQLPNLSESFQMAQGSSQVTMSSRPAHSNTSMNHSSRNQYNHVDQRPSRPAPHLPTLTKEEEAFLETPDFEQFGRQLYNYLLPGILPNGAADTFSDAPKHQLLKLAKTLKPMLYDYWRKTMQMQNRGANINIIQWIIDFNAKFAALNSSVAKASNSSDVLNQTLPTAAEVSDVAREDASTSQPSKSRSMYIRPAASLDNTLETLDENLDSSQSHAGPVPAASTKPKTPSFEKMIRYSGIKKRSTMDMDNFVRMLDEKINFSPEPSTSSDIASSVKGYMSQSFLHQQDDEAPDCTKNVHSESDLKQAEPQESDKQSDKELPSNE
Test: co-IP; GFP fusions (MEG-1::GFP, MEG-3::GFP) immunoprecipitated from embryo lysates with anti-GFP nanobody magnetic beads (4°C, 90 min; IP buffer 300 mM KCl, 50 mM HEPES pH 7.4, 0.1% NP-40); western blot with anti-POS-1 serum, anti-α-Tubulin and anti-GFP

binding: binds
Substance: POS-1 (from UniProt G5EF15 1-264)
